Source: publication PMC4961953
Results are given in words; binding and its absence hold for the method and conditions named. Binding seen in cells or lysates may run through a third protein. Some entries that bind do so weakly or less than the wild type.

Protein sequences, listed by entry. Tags and fused reporters are not part of them. Lines headed by an entry give the natural chain unless they say otherwise; changes in a name come on top. Chains listed by the source or under a name are the forms on record and can include a tag or linker. Residues count along the entry.
UniProt Q8NEB9: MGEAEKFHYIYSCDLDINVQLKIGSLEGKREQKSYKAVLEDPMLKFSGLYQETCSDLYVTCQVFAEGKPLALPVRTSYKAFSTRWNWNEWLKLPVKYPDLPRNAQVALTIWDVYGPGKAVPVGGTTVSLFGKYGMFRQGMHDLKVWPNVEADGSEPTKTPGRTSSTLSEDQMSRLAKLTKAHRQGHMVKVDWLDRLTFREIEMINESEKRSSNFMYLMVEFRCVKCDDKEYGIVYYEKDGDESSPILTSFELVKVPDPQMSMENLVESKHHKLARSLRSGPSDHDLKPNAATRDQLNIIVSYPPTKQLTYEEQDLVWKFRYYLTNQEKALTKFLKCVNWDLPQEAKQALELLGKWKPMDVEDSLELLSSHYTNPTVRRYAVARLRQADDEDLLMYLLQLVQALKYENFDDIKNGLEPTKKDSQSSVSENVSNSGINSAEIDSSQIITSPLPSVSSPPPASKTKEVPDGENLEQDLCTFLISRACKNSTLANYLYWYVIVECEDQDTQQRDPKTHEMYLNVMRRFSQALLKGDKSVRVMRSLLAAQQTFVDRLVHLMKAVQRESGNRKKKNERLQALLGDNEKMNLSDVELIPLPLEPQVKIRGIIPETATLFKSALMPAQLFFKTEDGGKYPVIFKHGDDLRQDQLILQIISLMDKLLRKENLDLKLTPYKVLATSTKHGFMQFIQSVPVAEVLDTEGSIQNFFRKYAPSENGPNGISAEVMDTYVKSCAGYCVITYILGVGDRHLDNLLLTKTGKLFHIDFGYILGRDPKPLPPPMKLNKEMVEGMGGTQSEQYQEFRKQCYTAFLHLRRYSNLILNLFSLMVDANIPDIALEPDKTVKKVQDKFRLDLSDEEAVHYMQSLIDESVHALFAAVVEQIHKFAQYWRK
Glucose-regulated protein 78 (GRP78), endogenous in DLD1 cells (human (endogenous in DLD1)) (P11021, residues 19-654): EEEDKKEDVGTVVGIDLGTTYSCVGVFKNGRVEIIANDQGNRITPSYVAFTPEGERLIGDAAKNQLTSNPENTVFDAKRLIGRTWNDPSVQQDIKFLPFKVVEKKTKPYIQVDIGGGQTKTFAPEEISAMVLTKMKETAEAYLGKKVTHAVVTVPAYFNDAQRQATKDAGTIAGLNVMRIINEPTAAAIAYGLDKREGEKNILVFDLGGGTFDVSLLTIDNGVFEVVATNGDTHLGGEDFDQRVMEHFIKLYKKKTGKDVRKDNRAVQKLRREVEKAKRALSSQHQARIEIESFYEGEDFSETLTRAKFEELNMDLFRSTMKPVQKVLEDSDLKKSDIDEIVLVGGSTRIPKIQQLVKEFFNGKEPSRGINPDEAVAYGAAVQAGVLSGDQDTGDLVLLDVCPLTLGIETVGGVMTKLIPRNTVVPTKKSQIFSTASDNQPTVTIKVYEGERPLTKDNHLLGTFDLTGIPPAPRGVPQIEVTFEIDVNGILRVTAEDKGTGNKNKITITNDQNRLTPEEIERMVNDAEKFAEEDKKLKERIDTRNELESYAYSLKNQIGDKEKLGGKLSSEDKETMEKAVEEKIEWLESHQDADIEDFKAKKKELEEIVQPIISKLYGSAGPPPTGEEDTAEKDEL
GRP78-GFP K633Q mutant (PLVX-GRP78-AcGFP-K633Q) (P11021, form named): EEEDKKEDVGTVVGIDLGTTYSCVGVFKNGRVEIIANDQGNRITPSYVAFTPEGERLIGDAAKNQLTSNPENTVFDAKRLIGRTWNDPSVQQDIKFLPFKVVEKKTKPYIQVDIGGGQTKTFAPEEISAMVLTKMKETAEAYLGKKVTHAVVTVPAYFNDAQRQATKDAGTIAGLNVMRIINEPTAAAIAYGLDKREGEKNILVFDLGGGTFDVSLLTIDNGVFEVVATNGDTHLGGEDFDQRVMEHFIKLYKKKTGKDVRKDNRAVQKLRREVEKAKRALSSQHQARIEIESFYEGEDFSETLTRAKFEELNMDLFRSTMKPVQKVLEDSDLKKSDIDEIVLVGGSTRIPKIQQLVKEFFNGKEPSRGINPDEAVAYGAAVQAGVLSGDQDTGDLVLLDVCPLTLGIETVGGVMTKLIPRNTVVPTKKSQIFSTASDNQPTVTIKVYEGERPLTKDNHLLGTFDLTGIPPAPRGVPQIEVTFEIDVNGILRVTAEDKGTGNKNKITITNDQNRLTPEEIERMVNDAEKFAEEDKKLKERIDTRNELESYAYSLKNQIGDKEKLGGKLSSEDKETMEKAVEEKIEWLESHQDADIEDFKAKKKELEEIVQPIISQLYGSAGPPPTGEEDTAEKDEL
UniProt Q9UBN7: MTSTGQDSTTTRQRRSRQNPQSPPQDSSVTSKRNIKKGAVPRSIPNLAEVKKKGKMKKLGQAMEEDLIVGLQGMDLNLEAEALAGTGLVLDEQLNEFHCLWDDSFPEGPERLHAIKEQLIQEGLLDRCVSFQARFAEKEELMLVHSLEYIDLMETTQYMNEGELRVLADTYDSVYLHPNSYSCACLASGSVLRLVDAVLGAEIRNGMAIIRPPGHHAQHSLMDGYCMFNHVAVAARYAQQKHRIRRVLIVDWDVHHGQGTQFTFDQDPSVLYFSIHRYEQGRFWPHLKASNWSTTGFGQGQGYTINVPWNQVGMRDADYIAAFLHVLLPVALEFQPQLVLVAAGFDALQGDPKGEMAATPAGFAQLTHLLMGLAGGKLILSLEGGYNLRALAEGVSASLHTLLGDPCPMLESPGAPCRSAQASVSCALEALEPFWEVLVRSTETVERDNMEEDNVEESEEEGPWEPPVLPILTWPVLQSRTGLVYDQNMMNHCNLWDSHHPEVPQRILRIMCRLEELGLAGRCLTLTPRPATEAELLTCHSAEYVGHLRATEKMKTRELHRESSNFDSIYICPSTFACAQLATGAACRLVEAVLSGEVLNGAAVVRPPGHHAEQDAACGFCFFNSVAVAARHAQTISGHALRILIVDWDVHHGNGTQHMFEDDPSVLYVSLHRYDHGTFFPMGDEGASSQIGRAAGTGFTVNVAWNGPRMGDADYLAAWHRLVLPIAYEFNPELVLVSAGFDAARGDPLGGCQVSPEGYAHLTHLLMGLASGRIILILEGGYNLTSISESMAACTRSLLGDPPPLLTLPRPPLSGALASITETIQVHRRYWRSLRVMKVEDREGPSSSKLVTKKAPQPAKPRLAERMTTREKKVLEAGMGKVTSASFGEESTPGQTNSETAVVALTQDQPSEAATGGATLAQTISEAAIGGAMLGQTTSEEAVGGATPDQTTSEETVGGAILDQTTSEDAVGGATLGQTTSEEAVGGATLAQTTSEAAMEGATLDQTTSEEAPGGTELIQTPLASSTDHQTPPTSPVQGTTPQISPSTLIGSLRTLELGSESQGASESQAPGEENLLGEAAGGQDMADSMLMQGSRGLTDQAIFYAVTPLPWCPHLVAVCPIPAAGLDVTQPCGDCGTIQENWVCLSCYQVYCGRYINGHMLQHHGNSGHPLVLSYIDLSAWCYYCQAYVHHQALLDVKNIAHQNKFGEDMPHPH

Columns and labels:
Flag-tagged VPS34 = Flag-tagged VPS34 (UniProt Q8NEB9); experiment: co-IP; 293T cells co-transfected with Flag-tagged VPS34 and GRP78-GFP (wild type or mutant) plasmids, with or without SAHA for 12 h; lysates immunoprecipitated with an anti-Flag antibody, immunoblotted with an anti-GFP antibody
[1] = biological target: Glucose-regulated protein 78 (GRP78), endogenous in DLD1 cells (human (endogenous in DLD1)) (UniProt P11021); experiment: co-IP; DLD1 whole-cell lysates, cells treated or untreated with SAHA; immunoprecipitated with an anti-GRP78 antibody, immunoblotted with anti-HDAC6 and anti-VPS34 antibodies; all proteins endogenous

Row | Substance | binding (Flag-tagged VPS34) | binding [1]
1 | GRP78-GFP K633Q mutant (PLVX-GRP78-AcGFP-K633Q) (from UniProt P11021 19-654) | binds | 
2 | GRP78-GFP fusion protein (wild-type GRP78, plasmid PLVX-GRP78-AcGFP) (from UniProt P11021 19-654) | binds | 
3 | Histone deacetylase 6 (HDAC6), endogenous in DLD1 cells (from UniProt Q9UBN7 1-1215) |  | binds
